From publication PMC12374970
These are yes or no findings as the source states them, for the method shown. In cells and extracts the contact can be indirect.

Chains of the proteins cited; added tags and fusions are not shown.
UniProt Q9UPY3: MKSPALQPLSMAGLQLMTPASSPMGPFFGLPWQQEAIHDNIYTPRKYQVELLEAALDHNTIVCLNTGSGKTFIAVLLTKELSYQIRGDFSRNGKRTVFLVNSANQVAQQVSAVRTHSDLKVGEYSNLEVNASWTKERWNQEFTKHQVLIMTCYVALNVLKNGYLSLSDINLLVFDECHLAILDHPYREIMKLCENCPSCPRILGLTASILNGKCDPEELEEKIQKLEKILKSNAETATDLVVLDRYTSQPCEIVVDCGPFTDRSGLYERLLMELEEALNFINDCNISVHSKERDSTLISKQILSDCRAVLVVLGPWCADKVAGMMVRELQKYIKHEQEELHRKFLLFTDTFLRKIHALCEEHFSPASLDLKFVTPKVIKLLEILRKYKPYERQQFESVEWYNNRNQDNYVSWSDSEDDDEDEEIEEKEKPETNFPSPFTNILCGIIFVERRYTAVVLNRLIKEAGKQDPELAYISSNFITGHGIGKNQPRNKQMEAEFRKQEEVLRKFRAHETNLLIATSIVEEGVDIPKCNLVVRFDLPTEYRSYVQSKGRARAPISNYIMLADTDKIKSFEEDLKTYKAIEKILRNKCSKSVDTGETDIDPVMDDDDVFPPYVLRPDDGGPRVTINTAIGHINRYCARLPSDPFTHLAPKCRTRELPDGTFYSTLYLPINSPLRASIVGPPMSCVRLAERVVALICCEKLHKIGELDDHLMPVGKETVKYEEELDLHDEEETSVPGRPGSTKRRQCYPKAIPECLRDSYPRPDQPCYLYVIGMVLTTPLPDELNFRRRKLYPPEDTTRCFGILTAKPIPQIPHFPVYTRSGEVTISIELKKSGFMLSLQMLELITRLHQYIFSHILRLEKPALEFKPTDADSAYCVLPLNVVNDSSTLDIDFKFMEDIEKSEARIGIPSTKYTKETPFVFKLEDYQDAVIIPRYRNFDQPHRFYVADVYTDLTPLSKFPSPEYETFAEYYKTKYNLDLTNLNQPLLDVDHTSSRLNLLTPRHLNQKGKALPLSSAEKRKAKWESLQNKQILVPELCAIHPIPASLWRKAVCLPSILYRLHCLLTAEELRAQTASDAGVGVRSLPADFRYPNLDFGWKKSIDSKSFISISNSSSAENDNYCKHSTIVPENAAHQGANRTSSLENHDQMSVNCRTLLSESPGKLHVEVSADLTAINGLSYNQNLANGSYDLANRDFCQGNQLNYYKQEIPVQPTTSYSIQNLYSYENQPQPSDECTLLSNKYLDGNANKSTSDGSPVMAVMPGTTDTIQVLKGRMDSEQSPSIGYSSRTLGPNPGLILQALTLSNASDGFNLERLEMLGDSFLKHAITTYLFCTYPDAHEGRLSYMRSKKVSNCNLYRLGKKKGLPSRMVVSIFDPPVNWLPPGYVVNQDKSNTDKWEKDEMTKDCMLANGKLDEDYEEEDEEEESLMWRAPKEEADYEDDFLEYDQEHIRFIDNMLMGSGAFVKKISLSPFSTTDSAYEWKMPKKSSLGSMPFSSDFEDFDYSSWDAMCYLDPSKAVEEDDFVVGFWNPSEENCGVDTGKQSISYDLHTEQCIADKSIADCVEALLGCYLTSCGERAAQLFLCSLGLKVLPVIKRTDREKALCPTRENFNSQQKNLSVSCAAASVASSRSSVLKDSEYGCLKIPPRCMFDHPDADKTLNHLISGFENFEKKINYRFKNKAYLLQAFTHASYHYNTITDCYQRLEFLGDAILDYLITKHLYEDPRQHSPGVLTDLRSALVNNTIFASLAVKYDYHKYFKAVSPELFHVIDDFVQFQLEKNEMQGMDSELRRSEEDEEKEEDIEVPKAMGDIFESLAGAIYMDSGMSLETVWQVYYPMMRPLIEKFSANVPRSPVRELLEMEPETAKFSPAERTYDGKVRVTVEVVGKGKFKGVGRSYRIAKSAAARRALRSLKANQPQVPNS

Molecular target: DICER (endogenous, U2OS cells) (human (endogenous in U2OS)) (UniProt Q9UPY3)
Assay: proximity ligation; Duolink In Situ PLA with antibodies to the endogenous proteins in fixed, permeabilised cells (U2OS); untreated, +IR (10 Gy, 15 min) or +4OHT; also with DRB, triptolide or post-fixation RNase digestion

B1: DNMT2 (enzyme, UniProt O14717 1-391)
chain: MEPLRVLELYSGVGGMHHALRESCIPAQVVAAIDVNTVANEVYKYNFPHTQLLAKTIEGITLEEFDRLSFDMILMSPPCQPFTRIGRQGDMTDSRTNSFLHILDILPRLQKLPKYILLENVKGFEVSSTRDLLIQTIENCGFQYQEFLLSPTSLGIPNSRLRYFLIAKLQSEPLPFQAPGQVLMEFPKIESVHPQKYAMDVENKIQEKNVEPNISFDGSIQCSGKDAILFKLETAEEIHRKNQQDSDLSVKMLKDFLEDDTDVNQYLLPPKSLLRYALLLDIVQPTCRRSVCFTKGYGSYIEGTGSVLQTAEDVQVENIYKSLTNLSQEEQITKLLILKLRYFTPKEIANLLGFPPEFGFPEKITVKQRYRLLGNSLNVHVVAKLIKILYE
- binding: no binding
